From PubChem BioAssay AID192 (DTP/NCI, 2004)
The list does not hold the whole screen: its compounds were picked by chemical class. Not every dose and run of a compound is shown. T/C is the treated group as % of the vehicle group. Some entries give survivors of the animals treated and no T/C: the source holds a T/C of zero for them, seemingly a mark for toxic or unscored doses. Some survivor counts are full or nearly so, which does not show that the dose was tolerated: the source hardly ever lists a survival T/C far under the control, and the zero likely stands for such cases as well. Counts of survivors are from the toxicity check (mostly the fifth day) where no day follows; animals may have died later. Schedules are NCI's codes, taken here to give the interval after Q, in days (D) or hours (H), and the number of doses after X. Some entries were tested several times; the values are given in rising order. Brackets with × say how often a value occurs here. For survival time, this PubChem deposit counts one and a half times the control or more as active, and values a quarter to a half above the control carry no call in these data; other NCI protocols may use other cut-offs. Some T/C values carry the count of animals alive at the toxicity check (mostly the fifth day); where neither a count nor a note follows, no animal had died by that day.

System: BDF1 mice, B16 melanoma ip, median survival T/C
Assay: NCI In Vivo Anticancer Drug Screen. Data for tumor model B16 Melanoma (intraperitoneal) in B6D2F1 (BDF1) mice
Conditions: T/C endpoint: median survival time, higher T/C = longer survival
Method in brief: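 Vehicle-treated animals serve as the reference (C); treated animals (T) are scored for survival or tumor size after tumor transplantation.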

[1] = dose: 25.0 mg/kg/injection, schedule: Q01DX009 (ip), vehicle: Klucel (hydroxypropylcellulose) (HPC)
[2] = dose: 50.0 mg/kg/injection, schedule: Q01DX009 (ip), vehicle: Klucel (hydroxypropylcellulose) (HPC)
[3] = dose: 100.0 mg/kg/injection, schedule: Q01DX009 (ip), vehicle: Klucel (hydroxypropylcellulose) (HPC)
[4] = dose: 200.0 mg/kg/injection, schedule: Q01DX009 (ip), vehicle: Klucel (hydroxypropylcellulose) (HPC)
[5] = dose: 200.0 mg/kg/injection, schedule: Q01DX009 (ip), vehicle: saline
[6] = dose: 400.0 mg/kg/injection, schedule: Q01DX009 (ip), vehicle: Klucel (hydroxypropylcellulose) (HPC)
[7] = dose: 400.0 mg/kg/injection, schedule: Q01DX009 (ip), vehicle: saline with Tween-80
[8] = dose: 400.0 mg/kg/injection, schedule: Q08DX002 (ip), vehicle: saline
[9] = dose: 800.0 mg/kg/injection, schedule: Q01DX002 (ip), vehicle: Klucel (hydroxypropylcellulose) (HPC)
[10] = dose: 800.0 mg/kg/injection, schedule: Q08DX002 (ip), vehicle: Klucel (hydroxypropylcellulose) (HPC)
[11] = dose: 800.0 mg/kg/injection, schedule: Q08DX002 (ip), vehicle: saline with Tween-80
[12] = dose: 800.0 mg/kg/injection, schedule: Q08DX002 (ip), vehicle: saline

`NC(=O)c1[nH]cnc1/N=N\N(CCCl)CCCl` was tested, and the T/C (dose: 10.0 mg/kg/injection, schedule: Q01DX009 (ip), vehicle: water) was 110 % of control, the T/C (dose: 12.5 mg/kg/injection, schedule: Q01DX009 (ip), vehicle: saline) was 107 % of control and the T/C (dose: 12.5 mg/kg/injection, schedule: Q01DX009 (ip), vehicle: steroid suspending solution) was 121 % of control. For the same compound, the T/C (dose: 19.0 mg/kg/injection, schedule: Q01DX009 (ip), vehicle: water) was 126 % of control, the T/C [1] was 97, 100, 105, 106, 109, 110, 113, 114, 118, 121, 122, 123, 136 % of control and the T/C (dose: 25.0 mg/kg/injection, schedule: Q01DX009 (ip), vehicle: saline with Tween-80, evaluated on day 45) was 108 % of control. The T/C (dose: 25.0 mg/kg/injection, schedule: Q01DX009 (ip), vehicle: saline with Tween-80, evaluated on day 60) was 98, 100, 103, 107, 109, 111, 112, 114 % of control (2×), the T/C (dose: 25.0 mg/kg/injection, schedule: Q01DX009 (ip), vehicle: saline) was 104, 107, 110, 114, 118, 126, 132 % of control and the T/C (dose: 25.0 mg/kg/injection, schedule: Q01DX009 (ip), vehicle: steroid suspending solution) was 121 % of control. For the same compound, the survivor count (dose: 38.0 mg/kg/injection, schedule: Q01DX009 (ip), vehicle: water) was 4 of 6, the T/C [2] was 102, 105, 109, 111, 113, 119 (2×), 120, 121 (2×), 123, 125, 127, 142, 144 % of control and the T/C (dose: 50.0 mg/kg/injection, schedule: Q01DX009 (ip), vehicle: saline with Tween-80, evaluated on day 45) was 123 % of control [5 of 6 alive]. For the same compound, the T/C (dose: 50.0 mg/kg/injection, schedule: Q01DX009 (ip), vehicle: saline with Tween-80, evaluated on day 60) was 103, 105, 108, 115, 122, 125, 126, 136, 148 % of control, the T/C (dose: 50.0 mg/kg/injection, schedule: Q01DX009 (ip), vehicle: saline) was 102, 112, 125, 140, 141, 147 % of control (2×) and the T/C (dose: 50.0 mg/kg/injection, schedule: Q01DX009 (ip), vehicle: steroid suspending solution) was 147 % of control. The T/C (dose: 75.0 mg/kg/injection, schedule: Q01DX009 (ip), vehicle: water) was 121 % of control [5 of 6 alive], the T/C (dose: 77.8 mg/kg/injection, schedule: Q01DX009 (ip), vehicle: DMSO) was 119 % of control and the T/C (dose: 100.0 mg/kg/injection, schedule: Q01DX002 (ip), vehicle: Klucel (hydroxypropylcellulose) (HPC)) was 95, 121, 123, 136 % of control. The T/C [3] was 115 (2×), 122, 129, 130, 132, 133 (2×), 134, 142, 150, 192, 200, 215 % of control, the survivor count [3] was 6 of 6 and the T/C (dose: 100.0 mg/kg/injection, schedule: Q01DX009 (ip), vehicle: saline with Tween-80, evaluated on day 45) was 164 % of control. The T/C (dose: 100.0 mg/kg/injection, schedule: Q01DX009 (ip), vehicle: saline with Tween-80, evaluated on day 60) was 125 [5 of 6 alive], 130, 152, 165 [5 of 6 alive], 168, 170, 178, 182, 186 % of control, the T/C (dose: 100.0 mg/kg/injection, schedule: Q01DX009 (ip), vehicle: saline) was 91, 120, 126, 135, 138, 150, 168 % of control and the T/C (dose: 100.0 mg/kg/injection, schedule: Q01DX009 (ip), vehicle: steroid suspending solution) was 202 % of control. The T/C (dose: 100.0 mg/kg/injection, schedule: Q08DX002 (ip), vehicle: Klucel (hydroxypropylcellulose) (HPC)) was 102, 109, 111, 114, 121 (2×), 135, 136, 140, 143, 144 % of control, the T/C (dose: 100.0 mg/kg/injection, schedule: Q08DX002 (ip), vehicle: saline with Tween-80, evaluated on day 45) was 95 and 127 % of control (2×) and the T/C (dose: 100.0 mg/kg/injection, schedule: Q08DX002 (ip), vehicle: saline with Tween-80, evaluated on day 60) was 92, 96, 105, 108, 110, 120, 121, 122, 123 % of control. The T/C (dose: 100.0 mg/kg/injection, schedule: Q08DX002 (ip), vehicle: saline) was 93, 94, 97, 111, 141 % of control, the T/C (dose: 130.0 mg/kg/injection, schedule: Q01DX009 (ip), vehicle: DMSO) was 156 % of control and the T/C (dose: 150.0 mg/kg/injection, schedule: Q01DX009 (ip), vehicle: water) was 94 % of control. The T/C (dose: 200.0 mg/kg/injection, schedule: Q01DX002 (ip), vehicle: Klucel (hydroxypropylcellulose) (HPC)) was 105, 126, 163 [5 of 6 alive], 192 % of control, the T/C [4] was 88, 95, 100, 107, 111 (2×), 115, 121, 126, 130, 145, 169, 186 % of control and the survivor count [4] was 6 of 6. The T/C (dose: 200.0 mg/kg/injection, schedule: Q01DX009 (ip), vehicle: saline with Tween-80, evaluated on day 45) was 97 % of control, the T/C (dose: 200.0 mg/kg/injection, schedule: Q01DX009 (ip), vehicle: saline with Tween-80, evaluated on day 60) was 87, 97, 110, 125, 135 % of control and the survivor count (dose: 200.0 mg/kg/injection, schedule: Q01DX009 (ip), vehicle: saline with Tween-80) was 6 of 6. For the same compound, the T/C [5] was 110, 129, 169, 210 % of control, the survivor count [5] was 6 of 6 and the T/C (dose: 200.0 mg/kg/injection, schedule: Q01DX009 (ip), vehicle: steroid suspending solution) was 236 % of control. The T/C (dose: 200.0 mg/kg/injection, schedule: Q08DX002 (ip), vehicle: Klucel (hydroxypropylcellulose) (HPC)) was 113, 122, 127 [5 of 6 alive], 142 (2×), 158, 164, 175, 178 (2×), 200 % of control, the T/C (dose: 200.0 mg/kg/injection, schedule: Q08DX002 (ip), vehicle: saline with Tween-80, evaluated on day 45) was 120, 132, 135 % of control and the T/C (dose: 200.0 mg/kg/injection, schedule: Q08DX002 (ip), vehicle: saline with Tween-80, evaluated on day 60) was 98, 105, 120 (2×), 135, 152, 163, 171, 191 % of control. The T/C (dose: 200.0 mg/kg/injection, schedule: Q08DX002 (ip), vehicle: saline) was 87, 97, 97 [5 of 6 alive], 108, 158 % of control, the survivor count (dose: 216.0 mg/kg/injection, schedule: Q01DX009 (ip), vehicle: DMSO) was 10 of 10 and the survivor count (dose: 360.0 mg/kg/injection, schedule: Q01DX009 (ip), vehicle: DMSO) was 10 of 10. For the same compound, the T/C (dose: 400.0 mg/kg/injection, schedule: Q01DX002 (ip), vehicle: Klucel (hydroxypropylcellulose) (HPC)) was 111, 145, 147 [5 of 6 alive], 242 % of control, the T/C [6] was 86, 95, 100 (2×), 133 % of control and the survivor count [6] was 1 of 6, 5 of 6, 6 of 6. The T/C [7] was 100, 100 [5 of 6 alive], 102 % of control, the survivor count [7] was 5 of 6, 5 of 5, 6 of 6 (2×) and the survivor count (dose: 400.0 mg/kg/injection, schedule: Q01DX009 (ip), vehicle: saline) was 5 of 6 and 6 of 6. The survivor count (dose: 400.0 mg/kg/injection, schedule: Q01DX009 (ip), vehicle: steroid suspending solution) was 6 of 6, the T/C (dose: 400.0 mg/kg/injection, schedule: Q08DX002 (ip), vehicle: Klucel (hydroxypropylcellulose) (HPC)) was 104, 114, 119, 120, 126 [5 of 6 alive], 127, 145 [5 of 6 alive], 165, 180, 197, 306 % of control and the T/C (dose: 400.0 mg/kg/injection, schedule: Q08DX002 (ip), vehicle: saline with Tween-80, evaluated on day 45) was 115, 140, 165 % of control. The T/C (dose: 400.0 mg/kg/injection, schedule: Q08DX002 (ip), vehicle: saline with Tween-80, evaluated on day 60) was 112, 122, 142, 143, 157 (2×), 170, 182, 184 % of control, the T/C [8] was 100 (2×), 144, 145 % of control and the survivor count [8] was 6 of 6. For the same compound, the T/C [9] was 88, 92, 105 % of control, the survivor count [9] was 6 of 6 and the T/C [10] was 100, 104, 113, 116, 117, 125, 172 % of control [5 of 6 alive]. The survivor count [10] was 6 of 6, the T/C [11] was 91, 95, 123, 188 % of control and the survivor count [11] was 2 of 6 and 6 of 6 (2×). For the same compound, the T/C [12] was 100 % of control and the survivor count [12] was 0 of 6, 4 of 6, 6 of 6.
For `Cc1ccc(P(=S)(Cl)Cl)cc1`, the T/C (dose: 12.5 mg/kg/injection, schedule: Q01DX009 (ip), vehicle: Klucel (hydroxypropylcellulose) (HPC)) was 100 % of control, the T/C [1] was 94 % of control and the T/C [2] was 88 % of control.
